Results: patent publication US20090281090A1, “BIOMARKERS FOR THE PREDICTION OF RESPONSIVENESS TO CLOZAPINE TREATMENT” (NOVARTIS AG, priority 2004, published 2009)
At least one structure is not confirmed: it was looked up by name or label, or the drawing left a doubt.

Assays:
[1] = tested on: patients with schizophrenia or schizoaffective disorders; assay: InterSePT pharmacogenetic analysis: DAT1 3'UTR VNTR polymorphism vs Type 1 event / drug response; type: in vivo, human
Experimental: Association between a VNTR polymorphism in the 3′UTR region of the DAT1 gene and clozapine response. The objective of this EXAMPLE was to evaluate potential association between a VNTR polymorphism in the 3′UTR region of the Dopamine Transporter 1 gene (SLC6A3; DAT1) and drug response in the patients with schizophrenia or schizoaffective disorders treated with clozapine.
A retrospective pharmacogenetic analysis was conducted in an attempt to evaluate potential association between a variable number of tandem repeats (VNTR) polymorphism in the 3′UTR region of the DAT1 gene and drug response in the patients with schizophrenia or schizoaffective disorders treated with clozapine.
A multicenter, randomized, two-year study comparing the risk for suicidal behaviour in patients treated with clozapine vs olanzapine had already been conducted in patients with schizophrenia or schizoaffective disorders (see above). […] See, published PCT patent application WO 2004/074513.
Genotyping. Four hundred and two samples from the patients enrolled in the InterSePT study (see above) were collected and genotyped for the VNTR polymorphism. A total of 402 subjects enrolled in the InterSePT study consented to Pharmacogenetics study in accordance with protocols approved by local ethics committees. 15 ml of blood were collected from the patients at the trial sites. The DNA was extracted by Covance (Indianapolis, USA) using the PUREGENE™ DNA Isolation Kit (D50K) according to the manufacturer's recommendations. VNTR genotyping was performed using PCR approach as described by Kidd (Kidd Laboratory, http://info.med.yale.edu/genetics/kkidd/SLC6A3—3VNTR.html). The sense and antisense PCR primers were 5′-GGTGTAGGGAACGGCCTGAGAG-3′ (SEQ ID NO:3) and 5′-CTTCCTGGAGGTCACGGCTCAAGG-3′ (SEQ ID NO:4), respectively. Approximately 100-200 ng of genomic DNA was needed for each assay. Thirty cycles of PCR were performed with the condition of 94° C. (30″), 62° C. (30″) and 72° C. (30″). PCR products were analyzed using 2% agarose gel.
Clinical assessments. For the primary efficacy variable, time (in days, after randomization) to meeting any one of the following two criteria: (a) a significant suicide attempt; and (b) hospitalization due to imminent suicide risk. Type 1 Event is defined as combination of above two items. For secondary efficacy variables, the following were determined: (a) percentage of subjects with significant suicide attempts; (b) percentage of subjects with hospitalization due to imminent suicide risk; (c) change from baseline in the total score of the Positive and Negative Syndrome Scale (PANSS); (d) change from baseline in the Positive subtotal of PANSS; and (e) change from baseline in the Negative subtotal of PANSS.
Statistic analysis. The SAS Version 8.2 for Windows package was used for statistical analysis. The continuous and dischotomous variables in demographic differences between the genotype groups were compared using non-parametric ANOVA and Fisher's exact test, respectively. The differential effects of genotypes on the time to Type 1 event were evaluated using log rank test. Age, gender, substance abuse, and lifetime suicide attempts were adjusted in further analysis using the Cox proportional hazards model.

[2] = tested on: patients with schizophrenia or schizoaffective disorders at high risk for suicide; details: cited from earlier work
[3] = tested on: patients with schizophrenia or schizoaffective disorders; assay: Pharmacogenetic study: SLC6A3 Exon 9 A59G polymorphism vs time to Type 1 event; type: in vivo, human; details: subjects with GG genotype (exon 9 A59G)

Q: With `Cc1cc2c(s1)Nc1ccccc1N=C2N1CCN(C)CC1` [Olanzapine, olanzapine] as the compound, how does the “association between the VNTR polymorphism and the risk of Type 1 event” value ([1]; Cox proportional hazards model with covariates age, gender, substance abuse, lifetime suicide attempts) read?
A: no association can be detected

Q: And the “association between the VNTR polymorphism and the risk of Type 1 event” value ([1]; log rank test, 9 or fewer repeat alleles vs at least one copy of 10 or more repeat alleles)?
A: no association can be detected

Q: And the “association between the VNTR polymorphism and the time to Type 1 event” value ([1]; log rank test, three genotype groups, Caucasian subpopulation and whole population)?
A: no such an association can be detected

Q: And the “association between the VNTR polymorphism and response measured by Type 1 event, disease-based subpopulation analysis” value ([1]; subjects with schizophrenia vs schizoaffective disorder)?
A: no difference between genotype groups

Q: Which “suicidal behaviour (suicide attempts, hospitalizations for suicidal thoughts, rescue interventions, concomitant treatment)” value ([2]; clozapine vs. olanzapine, patients at high risk for suicide, 2-year study) does the source give for `CN1CCN(C2=Nc3cc(Cl)ccc3Nc3ccccc32)CC1` [Clozapine, 8-chloro-11-(4-methyl-1-piperazinyl)-5H-dibenzo[be][1,4]diazepine] here?
A: significantly less

Q: And the “effectiveness in preventing suicide attempts” value ([2]; compared with olanzapine, two-year study)?
A: more effective than olanzapine

Q: What about the “response to treatment with respect to suicidal behaviour” value ([1]; subjects with nine or fewer repeat alleles in the VNTR polymorphism) of the same compound?
A: poor responders

Q: What about the “response with respect to suicidal behaviour at the end point of study” value [3] of the same compound?
A: poor responders
